{"sequences": {"note": "Protein sequences, listed by entry. Tags and fused reporters are not part of them.", "UniProt O15379": "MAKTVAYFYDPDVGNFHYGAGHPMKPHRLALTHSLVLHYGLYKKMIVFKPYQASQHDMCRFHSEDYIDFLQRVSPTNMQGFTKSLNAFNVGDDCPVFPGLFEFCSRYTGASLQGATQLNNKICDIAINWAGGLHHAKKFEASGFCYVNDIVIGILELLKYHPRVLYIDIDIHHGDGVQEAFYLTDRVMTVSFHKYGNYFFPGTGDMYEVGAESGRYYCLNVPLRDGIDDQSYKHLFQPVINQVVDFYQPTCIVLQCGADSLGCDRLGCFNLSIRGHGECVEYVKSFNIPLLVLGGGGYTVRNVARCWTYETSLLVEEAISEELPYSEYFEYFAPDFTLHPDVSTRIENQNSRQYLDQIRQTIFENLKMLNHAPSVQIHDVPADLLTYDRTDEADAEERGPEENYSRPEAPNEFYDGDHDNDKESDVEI"}, "source": "paper PMC5983347", "binders": {"B1": {"name": "HA-tagged REV-ERBα (protein, UniProt P20393 1-614)", "chain": "MTTLDSNNNTGGVITYIGSSGSSPSRTSPESLYSDNSNGSFQSLTQGCPTYFPPSPTGSLTQDPARSFGSIPPSLSDDGSPSSSSSSSSSSSSFYNGSPPGSLQVAMEDSSRVSPSKSTSNITKLNGMVLLCKVCGDVASGFHYGVHACEGCKGFFRRSIQQNIQYKRCLKNENCSIVRINRNRCQQCRFKKCLSVGMSRDAVRFGRIPKREKQRMLAEMQSAMNLANNQLSSQCPLETSPTQHPTPGPMGPSPPPAPVPSPLVGFSQFPQQLTPPRSPSPEPTVEDVISQVARAHREIFTYAHDKLGSSPGNFNANHASGSPPATTPHRWENQGCPPAPNDNNTLAAQRHNEALNGLRQAPSSYPPTWPPGPAHHSCHQSNSNGHRLCPTHVYAAPEGKAPANSPRQGNSKNVLLACPMNMYPHGRSGRTVQEIWEDFSMSFTPAVREVVEFAKHIPGFRDLSQHDQVTLLKAGTFEVLMVRFASLFNVKDQTVMFLSRTTYSLQELGAMGMGDLLSAMFDFSEKLNSLALTEEELGLFTAVVLVSADRSGMENSASVEQLQETLLRALRALVLKNRPLETSRFTKLLLKLPDLRTLNNMHSEKLLSFRVDAQ"}}, "target": "HDAC3 (human (endogenous in HEK293)) (UniProt O15379)", "experiment": "co-IP; HEK293 cells transfected with HA-REV-ERBα and/or SENP-1, treated with 10 μM GSK1362 and/or 5 ng/ml IL-1β for 4 hours; lysate in IP lysis buffer (150 mM NaCl, 20 mM Tris-HCl, 10% glycerol, 1% Triton X-100, NEM); anti-HDAC3 or rabbit IgG, protein A beads, 4°C; blot for REV-ERBα", "note": "These are yes or no findings as the source states them, for the method shown. In cells and extracts the contact can be indirect. Some entries that bind do so weakly or less than the wild type. Where a sequence is shown, tags or fusion partners need not be part of it."}
{"binder": "B1", "values": [{"measurement": "binding", "value": "binds"}]}
